Results: publication PMC10163288
The list shows a part of the results.

B1: il10ra_site1_sap_14_mot_HHH_b2_01447_af2_000000258_0001_1_20_H_._HHH_b2_01069_0001_0000400054_0000001_0_0001 (protein)
chain: SSSSSSTEAEEIWRLIREALHIDDPEEARELLEQAQELAEELNSRVLAIQVRFLLRSRSSSSSSS
B2: il10ra_site1_sap_34_mot_HHH_b1_01513_af2_000000021_0001_1_16_H_._HHH_b2_07752_0001_0000400029_0000002_0_0001_af2pred_dldesign_0_af2pred (protein)
chain: SSSSSNPKEFLKKALEYAKWLLEQGDEESAAYVVAAARDMIERAGDPELRKMLEEFEEELSSSSS
B3: il10ra_site1_normal_mot_HHH_b2_05813_000000266_0001_1_19_H_._HHH_b2_04910_af2_0001_0000500012_0000002_0_af2pred_0001 (protein)
chain: SSSSNAEEIALKAAVRARRLLQKGDPEEAERILEEALEELEELGNPKAVRLIRNALRIIRLSSSS
B4: il10ra_site1_normal_mot_0750aae41c39e4229e2ea8fa354cc919_0001_1_000000144_0001_37_51_H_._HHH_b1_03276_0001_0001200092_0000001_0 (protein)
chain: SSSNAEISLKAAERALRVLLEEGDPERAEHALQFWAELDELAGNPELAEELREIFERLEQELSSS
B5: il10ra_site1_normal_mot_HHH_b1_02997_000000220_0001_39_52_H_._HHH_b1_06380_0001_0000200012_0000001_0_af2pred_0001 (protein)
chain: SSSSSSDEVHEIVRLIREALQIEDPEEAEKVLEEAERLAEEANNEQALIIIETAKRVLGSSSSSS
B6: il10ra_site1_normal_mot_HHH_b2_00837_af2_000000287_0001_40_54_H_._HHH_b1_03367_af2_0001_0000300020_0000002_0 (protein)
chain: SSSSDEEEEELKKLLEELEELVEEGDPRRVSRVAAEIARLAFRLNDPEALKRAWELVQSVKSSSS
B7: il10ra_site1_normal_mot_HHH_b2_06979_000000158_0001_42_57_H_._HHH_b1_03926_0001_0000300034_0000001_0 (protein)
chain: SSSSDVSQRIAELLRRASELLNEGNPEEAEELVEEALELAQENNNELLAHNAEFLLRDVRSSSSS
B8: il10ra_site1_sap_8_mot_HHH_b1_05357_000000034_0001_23_39_H_._HHH_b2_01639_0001_0000200008_0000001_0_0001 (protein)
chain: SSSSSEEEERLEELLERIKEAVERGDPELFAKLALELLRLAFQLRDEEVLQELHRLIEKAASSSS
B9: il10ra_site1_sap_13_mot_cffd2965c37bdde328b01796c783dcd7_0001_1_af2_000000013_0001_37_51_H_._32d9be0a7eede691a12a55b788178704_0001_af2_0001_0000500014_0000001_0 … (protein)
chain: SSSSDERELWRILLKALRAAYQNGDKELLEAIWELARRYAEEGDPRYVEEVEELVEEVEKSSSSS
B10: il10ra_site1_normal_mot_HHH_b2_08265_af2_000000206_0001_22_38_H_._HHH_b2_01362_0001_0000200008_0000001_0_1_af2pred_0001 (protein)
chain: SSSSSELEEEIEQLKKELEELLENNDPQRVVRVLRRLIKVAAETNDEEALELALEVAERLSSSSS
B11: il10ra_site1_normal_mot_HHH_b1_00999_000000080_0001_41_55_H_._HHH_b1_02031_af2_0001_0000100001_0000001_0 (protein)
chain: SSSSSDEEEEEVERLLEEAEKIPDPRERNEILLEALHIALELGDEELLQLVWKVVKELGSSSSSS
B12: il10ra_site1_sap_24_mot_HHH_b1_04940_000000219_0001_1_18_H_._HHH_b2_04489_0001_0000100005_0000001_0_0001 (protein)
chain: SSSSSSLEEAYELSRKLAELLREGDEEKFEELLEELRRLAEEGNNWIIRYLIEVLEAMLHSSSSS
B13: il10ra_site1_sap_15_mot_HHH_b1_03314_af2_000000278_0001_42_55_H_._HHH_b2_06830_0001_0000200008_0000002_0_0001 (protein)
chain: SSSSSSEEFEERVEELLERLEHVSPEERFRLLQEALHLAFQARNEELLQEIWRAAKEIAKSSSSS
B14: il10ra_site1_normal_mot_HHH_b2_08186_000000021_0001_43_56_H_._HHH_b2_01289_0002_0000200014_0000001_0 (protein)
chain: SSSSSDEVEELLEEVEELLREGNEEEALEVILRALQLAIRLSDPELLQEVWELLKKIAGSSSSSS
B15: il10ra_site1_normal_mot_HHH_b2_00573_000000208_0001_39_53_H_._HHH_b1_02008_0001_0000300018_0000001_0 (protein)
chain: SSSSDEEREEFERLYEEAEELLEEGDPEKVFEALRRLIELASELNDPELFRRVIRLIRELFSSSS
B16: il10ra_site1_sap_23_mot_HHH_b2_06497_000000202_0001_1_20_H_._HHH_b2_02266_af2_0001_0000800062_0000001_0_0001_af2pred_0001 (protein)
chain: SSSSSSEEVFRRVAELLAEAARIEDEEERKKVLEEAEELARENNDPLLEFAVEWAAERASSSSSS
B17: il10ra_site1_sap_15_mot_HHH_b2_00277_af2_000000172_0001_1_17_H_._HHH_b2_08320_0001_0000400029_0000001_0_0001_af2pred_0001 (protein)
chain: SSSSDEAAELLRRAAELAERIHREGDPELEEELEQLLEEVRELGDELVLRFVEFLLQLVQSSSSS
B18: il10ra_site1_sap_14_mot_HHH_b2_06795_000000133_0001_42_56_H_._HHH_b1_04942_0001_0000100002_0000002_0_0001 (protein)
chain: SSSSSSEEVWELIKRALELLAQGNEEEARKVLEEARELAEELNDFAALFAIRILEEDLNSSSSSS
B19: il10ra_site1_sap_15_mot_HHH_b1_00267_af2_000000050_0001_38_52_H_._HHH_b1_06096_0001_0000200009_0000001_0_0001 (protein)
chain: SSSSDEEQEELEELVRLLEELLKEGDRERFAETAQRALRIAFQLRDPEALRALWRLVKEFASSSS
B20: il10ra_site1_normal_mot_39ab2cb694c8b9c1dc7e65c0d672c93e_0001_000000036_0001_53_65_H_._HHH_b1_05574_0001_0000200012_0000001_0 (protein)
chain: SSSSSEEERIEELIERAEELLERGNPEEALRLVMEALRHAFRARNAELLKELWKLAKEIASSSSS
B21: il10ra_site1_normal_mot_HHH_b1_05860_000000142_0001_1_19_H_._HHH_b1_06300_0001_0000200017_0000002_0 (protein)
chain: SSSSTEEVYKLLREAAELLDNGNPEEARKVLEEAREIAEELNNELLEIQLEFLLKDIEEHSSSSS
B22: il10ra_site1_sap_24_mot_HHH_b1_06348_000000162_0001_1_15_H_._HHH_b2_05036_0001_0000200015_0000001_0_0001 (protein)
chain: SSSSDAAEFLLRQAIRALKLAGDEETVEELEELLEEYREKGDERYVQEALHLAAERALELKSSSS
B23: il10ra_site1_normal_mot_HHH_b1_04693_000000238_0001_19_36_H_._HHH_b2_03769_0001_0000100011_0000002_0 (protein)
chain: SSSSSQELYELLREIIELISDGDLEEAEELLEELRKLAEERNNPTIRVQVEFLEKLIRRLLSSSS
B24: il10ra_site1_normal_mot_HHH_b1_01082_af2_000000031_0001_3_19_H_._HHH_b1_00588_af2_0001_0000500037_0000001_0 (protein)
chain: SSSSDESEELLEEAEELLRKLLEEGDPQEAYKVLKKYIELLVELGDAQAALRLARRFQELSSSSS

Each binder was assayed against il10ra, Q13651 (assay: yeast display titration).

Apparent Kd, inactive:
B1 no binding seen
B2 no binding seen
B3 no binding seen
B4 no binding seen
B5 no binding seen
B6 no binding seen
B7 no binding seen
B8 no binding seen
B9 no binding seen
B10 no binding seen
B11 no binding seen
B12 no binding seen
B13 no binding seen
B14 no binding seen
B15 no binding seen
B16 no binding seen
B17 no binding seen
B18 no binding seen
B19 no binding seen
B20 no binding seen
B21 no binding seen
B22 no binding seen
B23 no binding seen
B24 no binding seen

Pulled one by one from the list above, 2 records:
Apparent Kd, inactive:
B14 no binding seen
B3 no binding seen
